Reference: US20250074994A1 (Molecular Partners, published 2025)
Results are given in words; binding and its absence hold for the method and conditions named. Some results given as binding are weak or reduced against the parent protein; the word gives no strength. Tags and fused reporters may be left off the sequences shown.

Assays:
[1] = target: T1, biotinylated recombinant human CD70 (extracellular domain, Fc tag) (human) (UniProt P32970); experiment: crude extract HTRF
T1 sequence (chain, chemically biotinylated using 5-fold excess of Biotin): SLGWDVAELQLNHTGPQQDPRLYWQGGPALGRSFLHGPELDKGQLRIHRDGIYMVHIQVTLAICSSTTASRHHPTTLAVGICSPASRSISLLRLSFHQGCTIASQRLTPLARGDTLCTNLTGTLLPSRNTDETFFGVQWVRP

[2] = target: T1, biotinylated recombinant human CD70 (extracellular domain, Fc tag) (human); experiment: crude cell extract HTRF with 2 nM biotinylated hCD70

B1: DARPin® protein #7 (designed binder)
chain: MRGSHHHHHHGSDLGAKLLNAATVGQDDEVRILLAAGADVNAKDWSGQTPLHHAAYTGHLEIVEVLLKAGADVNAKDSWGWTPLHLAAYTGHLEIVEVLLKAGADVNAQDKEGSTPADLAAFHGHEDIAEVLQKAA
binding [1]: binds
binding [2]: binds
